# Reference: PubChem BioAssay AID652272 (Drosophila RNAi Screening Center, 2013)
# Purpose: 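Finding fly genes that regulate Hedgehog signal transduction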 (primary screen)
# System: Drosophila clone 8 (Cl8) cells
# Reagents: long dsRNA against Drosophila genes
# Measured: 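Firefly light from a Hedgehog-responsive ptc promoter reporter and Renilla reference light, both read on a plate reader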
# Scale: firefly Hh reporter signal: higher = more ptc reporter light; Renilla reference signal: higher = more Renilla control light
# Call rule: 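Hit when the z-score averaged over two replicates is under -2 or over +3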
# Meaning of the calls: active = hit: reporter lowered or raised; inactive = not a hit
# The screen tested about 21,000 reagents; shown is a random part of those with a known target gene and a result. In the full data, 503 (2.4%) were called active. 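Raw plate light values, not normalised; calls rest on replicate z-scores that were not deposited; hits include reporter decreases as well as increases.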 A plus sign joins genes that one reagent is predicted to hit. Not given: the amount of reagent, the time to read-out.
"firefly Hh reporter signal, replicate 1","firefly Hh reporter signal, replicate 2","firefly Hh reporter signal, replicate 3","Renilla reference signal, replicate 1","Renilla reference signal, replicate 2",call,gene,dsRNA
1.23e5,49906,,3111,4505,inactive,Gpo2 (GeneID 35689),DRSC06822
1.77e5,81943,,4545,7931,inactive,NimC3 (GeneID 48772),DRSC03556
74090,50576,,3008,2263,inactive,Indy (GeneID 40049),DRSC10393
64790,1.24e5,,1952,3581,inactive,Mst89B (GeneID 41972),DRSC16748
3.98e5,1.22e5,,20797,5253,inactive,Bsg (GeneID 318841),DRSC01010
5.44e5,1.97e5,,27305,7544,inactive,Bsg (GeneID 318841),DRSC01011
1.94e5,85805,,4512,7388,inactive,Spn38F (GeneID 49806),DRSC03616
67220,52157,,3297,2336,inactive,CG33144 (GeneID 36131),DRSC06132
99841,63140,,3208,6948,inactive,CG33144 (GeneID 36131),DRSC07024
1.09e5,51739,,2777,4457,inactive,Obp44a (GeneID 35789),DRSC06838
5.79e5,1.13e5,,28853,3024,inactive,CG6195 (GeneID 42343),DRSC15989
89635,75362,,2481,2225,inactive,RhoGAP19D (GeneID 33048),DRSC20499
1.13e5,2.66e5,,3068,11216,inactive,RhoGAP19D (GeneID 33048),DRSC20500
1.76e5,1.07e5,,7168,4513,inactive,CG1074 (GeneID 40564),DRSC12143
75424,58528,,2272,5093,inactive,CG4866 (GeneID 36976),DRSC06899
84498,88093,,2234,2795,inactive,SP1029 (GeneID 53473),DRSC16848
1.00e5,72128,,2276,6018,inactive,CG13215 (GeneID 36182),DRSC06337
80267,50962,,3314,2304,inactive,CG5282 (GeneID 40256),DRSC11775
1.36e5,63068,,3329,5928,inactive,CG12853 (GeneID 50220),DRSC06193
64408,71034,,1722,1768,inactive,CG6023 (GeneID 32814),DRSC19970
1.16e5,2.02e5,,3475,8033,inactive,CG31815 (GeneID 318959),DRSC01548
81895,59411,,1783,1880,inactive,Jasper (GeneID 43576),DRSC16352
63467,1.73e5,,1425,7081,inactive,CG32755 (GeneID 318192),DRSC18397
6.08e5,3.19e5,,32397,11241,inactive,COX7AL2 (GeneID 5740746),DRSC00099
1.49e5,63622,,4849,1868,inactive,UbcE2M (GeneID 38916),DRSC10828
1.17e5,1.36e5,,4429,3452,inactive,Ptx1 (GeneID 43664),DRSC16804
95392,1.05e5,,4327,4274,inactive,kst (GeneID 38418),DRSC08719
52407,38200,,1789,2886,inactive,PIG-Wb (GeneID 38220),DRSC08526
1.23e5,69444,,2963,6245,inactive,Ziz (GeneID 34030),DRSC02506
1.03e5,48648,,3105,4518,inactive,Ziz (GeneID 34030),DRSC02976
90576,81410,,2144,2435,inactive,CG11504 (GeneID 43557),DRSC14318
89485,63469,,4432,2864,inactive,CG11191 (GeneID 35765),DRSC06056
39989,54964,,1772,1843,inactive,CG1161 (GeneID 40638),DRSC12180

No new results follow: entries from further up.
"firefly Hh reporter signal, replicate 1","firefly Hh reporter signal, replicate 2","firefly Hh reporter signal, replicate 3","Renilla reference signal, replicate 1","Renilla reference signal, replicate 2",call,gene,dsRNA
6.08e5,3.19e5,,32397,11241,inactive,COX7AL2 (GeneID 5740746),DRSC00099
1.49e5,63622,,4849,1868,inactive,UbcE2M (GeneID 38916),DRSC10828
1.17e5,1.36e5,,4429,3452,inactive,Ptx1 (GeneID 43664),DRSC16804
95392,1.05e5,,4327,4274,inactive,kst (GeneID 38418),DRSC08719
52407,38200,,1789,2886,inactive,PIG-Wb (GeneID 38220),DRSC08526
1.23e5,69444,,2963,6245,inactive,Ziz (GeneID 34030),DRSC02506
1.03e5,48648,,3105,4518,inactive,Ziz (GeneID 34030),DRSC02976

Next records follow.
"firefly Hh reporter signal, replicate 1","firefly Hh reporter signal, replicate 2","firefly Hh reporter signal, replicate 3","Renilla reference signal, replicate 1","Renilla reference signal, replicate 2",call,gene,dsRNA
84247,46048,,3328,1920,inactive,vimar (GeneID 35609),DRSC05026
5.67e5,1.02e5,,28166,2904,inactive,CG18428 (GeneID 42857),DRSC15326
92310,2.15e5,,3320,7373,inactive,CG12692 (GeneID 31372),DRSC17881
84517,2.04e5,,2663,8512,inactive,r (GeneID 32640),DRSC19813
78035,2.18e5,,2617,9418,inactive,r (GeneID 32640),DRSC19814
75562,46149,,4544,1328,inactive,CG11695 (GeneID 32106),DRSC19416
96860,65895,,1376,6017,inactive,mAChR-A (GeneID 37892),DRSC04702
1.16e5,70579,,3293,5322,inactive,CG17047 (GeneID 36478),DRSC06648
58387,39523,,3319,2235,active,CG6962 (GeneID 41436),DRSC16153
72499,1.01e5,,1787,2596,inactive,CG31445 (GeneID 326140),DRSC14443
2.01e5,,,3531,,inactive,mRpS9 (GeneID 40932),DRSC12645
76836,4.53e5,1.66e5,2866,2873,inactive,mRpS9 (GeneID 40932),DRSC15456
1.53e5,65844,,6268,2860,inactive,Hsp27 (GeneID 39078),DRSC11190
1.13e5,87264,,4218,3084,inactive,Dhrs4 (GeneID 38598),DRSC09773
23779,37609,,882,2761,active,His-Psi:CR31616 + His-Psi:CR31615,DRSC03760
83266,57670,,1591,4827,inactive,Ir60e (GeneID 37917),DRSC04227
72374,54981,,3829,2214,inactive,CG6683 (GeneID 38970),DRSC10694
61296,1.29e5,,3047,4758,inactive,CG7182 (GeneID 38944),DRSC10780
4.81e5,88555,,25040,2187,inactive,CG13622 (GeneID 42923),DRSC14624
71836,1.53e5,,3725,7752,inactive,CkIalpha (GeneID 32221),DRSC20231
44342,54760,,1859,1979,inactive,D19A (GeneID 38718),DRSC11133
69492,1.18e5,,2404,4893,inactive,mbt (GeneID 32631),DRSC20348
1.02e5,1.90e5,,3752,7929,inactive,Smvt (GeneID 43744),DRSC15426
6.31e5,1.42e5,,30042,3837,inactive,CG7432 (GeneID 42347),DRSC16243
